In the supplement of paper PMC10849652:
The list shows a part of the results.

Amino acid sequences for entries named in this document (tags omitted). A change or cut given only in a name is not applied to a line headed by its entry.
UniProt Q96SL8: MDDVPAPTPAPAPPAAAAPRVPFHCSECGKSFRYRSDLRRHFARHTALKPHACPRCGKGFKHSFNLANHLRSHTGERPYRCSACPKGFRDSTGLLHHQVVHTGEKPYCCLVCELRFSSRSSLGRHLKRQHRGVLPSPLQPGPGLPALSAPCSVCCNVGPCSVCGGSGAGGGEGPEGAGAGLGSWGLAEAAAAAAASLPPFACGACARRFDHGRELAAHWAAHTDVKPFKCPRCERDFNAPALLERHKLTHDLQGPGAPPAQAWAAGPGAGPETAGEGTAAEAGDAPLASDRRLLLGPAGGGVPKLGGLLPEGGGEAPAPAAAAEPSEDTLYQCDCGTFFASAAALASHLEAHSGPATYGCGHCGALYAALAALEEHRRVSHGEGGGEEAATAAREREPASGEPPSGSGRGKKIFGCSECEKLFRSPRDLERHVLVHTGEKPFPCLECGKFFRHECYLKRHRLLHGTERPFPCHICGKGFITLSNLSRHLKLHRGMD
UniProt P12318: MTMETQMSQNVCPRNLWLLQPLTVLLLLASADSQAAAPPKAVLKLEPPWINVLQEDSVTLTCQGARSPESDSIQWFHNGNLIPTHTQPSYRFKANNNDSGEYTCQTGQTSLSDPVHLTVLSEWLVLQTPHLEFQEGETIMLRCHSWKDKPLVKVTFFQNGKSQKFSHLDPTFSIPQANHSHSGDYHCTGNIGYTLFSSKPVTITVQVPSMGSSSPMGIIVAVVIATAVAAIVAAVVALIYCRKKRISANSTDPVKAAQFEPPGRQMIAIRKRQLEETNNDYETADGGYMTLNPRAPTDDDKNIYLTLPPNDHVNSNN
UniProt Q9UHY8: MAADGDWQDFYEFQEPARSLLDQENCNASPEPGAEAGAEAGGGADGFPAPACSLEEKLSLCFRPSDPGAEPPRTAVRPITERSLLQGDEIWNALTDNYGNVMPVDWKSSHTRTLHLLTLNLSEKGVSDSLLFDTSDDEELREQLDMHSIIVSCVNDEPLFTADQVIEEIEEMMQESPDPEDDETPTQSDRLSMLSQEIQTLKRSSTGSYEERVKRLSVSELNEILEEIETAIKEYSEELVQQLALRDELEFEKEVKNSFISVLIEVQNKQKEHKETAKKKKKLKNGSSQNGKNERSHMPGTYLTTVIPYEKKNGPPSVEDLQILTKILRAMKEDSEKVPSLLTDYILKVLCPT
UniProt Q9UKA2: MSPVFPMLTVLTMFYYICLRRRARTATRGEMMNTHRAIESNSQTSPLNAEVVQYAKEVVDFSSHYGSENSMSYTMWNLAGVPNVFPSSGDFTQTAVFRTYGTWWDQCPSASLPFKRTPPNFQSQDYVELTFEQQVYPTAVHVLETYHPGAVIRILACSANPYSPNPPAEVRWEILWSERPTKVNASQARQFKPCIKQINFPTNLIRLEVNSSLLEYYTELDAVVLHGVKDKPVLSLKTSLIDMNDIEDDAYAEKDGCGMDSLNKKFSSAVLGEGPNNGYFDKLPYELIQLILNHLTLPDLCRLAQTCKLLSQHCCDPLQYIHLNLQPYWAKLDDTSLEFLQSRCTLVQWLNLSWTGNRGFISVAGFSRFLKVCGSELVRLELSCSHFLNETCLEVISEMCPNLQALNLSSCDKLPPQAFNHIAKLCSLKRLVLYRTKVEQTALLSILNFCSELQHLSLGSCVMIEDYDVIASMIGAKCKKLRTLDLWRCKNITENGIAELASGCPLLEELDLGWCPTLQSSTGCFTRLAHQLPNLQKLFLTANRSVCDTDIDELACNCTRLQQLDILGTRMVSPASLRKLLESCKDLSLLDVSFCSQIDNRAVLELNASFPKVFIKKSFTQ
UniProt Q8TF40: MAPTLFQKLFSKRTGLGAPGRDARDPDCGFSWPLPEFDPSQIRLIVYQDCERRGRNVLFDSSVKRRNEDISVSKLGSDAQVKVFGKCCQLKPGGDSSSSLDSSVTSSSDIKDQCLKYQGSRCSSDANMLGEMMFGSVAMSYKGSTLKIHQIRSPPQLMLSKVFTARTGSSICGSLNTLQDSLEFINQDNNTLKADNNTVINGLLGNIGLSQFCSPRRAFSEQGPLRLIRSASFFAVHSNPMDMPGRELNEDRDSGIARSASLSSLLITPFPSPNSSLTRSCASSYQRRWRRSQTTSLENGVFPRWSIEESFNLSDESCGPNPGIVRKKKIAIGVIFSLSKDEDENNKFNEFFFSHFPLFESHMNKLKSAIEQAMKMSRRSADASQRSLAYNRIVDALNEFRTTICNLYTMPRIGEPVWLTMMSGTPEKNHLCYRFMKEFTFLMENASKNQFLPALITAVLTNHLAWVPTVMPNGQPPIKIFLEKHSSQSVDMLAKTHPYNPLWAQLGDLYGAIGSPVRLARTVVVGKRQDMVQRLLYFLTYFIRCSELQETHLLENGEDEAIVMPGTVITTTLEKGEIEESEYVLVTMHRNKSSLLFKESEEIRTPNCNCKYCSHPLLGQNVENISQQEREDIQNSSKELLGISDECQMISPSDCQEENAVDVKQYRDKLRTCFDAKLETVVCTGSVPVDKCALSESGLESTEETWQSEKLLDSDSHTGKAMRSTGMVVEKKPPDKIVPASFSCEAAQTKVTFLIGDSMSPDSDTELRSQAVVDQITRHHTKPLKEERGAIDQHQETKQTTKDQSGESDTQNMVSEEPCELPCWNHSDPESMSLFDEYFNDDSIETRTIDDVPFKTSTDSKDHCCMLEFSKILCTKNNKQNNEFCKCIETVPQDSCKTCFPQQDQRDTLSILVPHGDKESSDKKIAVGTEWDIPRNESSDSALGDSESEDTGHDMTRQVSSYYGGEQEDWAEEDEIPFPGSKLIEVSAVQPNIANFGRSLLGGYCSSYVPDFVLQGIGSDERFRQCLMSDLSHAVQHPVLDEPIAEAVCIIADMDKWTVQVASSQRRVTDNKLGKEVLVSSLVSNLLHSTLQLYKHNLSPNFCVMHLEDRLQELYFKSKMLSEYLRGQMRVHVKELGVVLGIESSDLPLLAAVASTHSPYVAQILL
UniProt Q5XKK7: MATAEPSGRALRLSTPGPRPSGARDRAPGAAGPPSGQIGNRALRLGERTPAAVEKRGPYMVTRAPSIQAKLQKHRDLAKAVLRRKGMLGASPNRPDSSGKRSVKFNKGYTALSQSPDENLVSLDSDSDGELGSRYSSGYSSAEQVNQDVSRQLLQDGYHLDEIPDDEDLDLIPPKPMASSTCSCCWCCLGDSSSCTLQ
UniProt Q8TES7: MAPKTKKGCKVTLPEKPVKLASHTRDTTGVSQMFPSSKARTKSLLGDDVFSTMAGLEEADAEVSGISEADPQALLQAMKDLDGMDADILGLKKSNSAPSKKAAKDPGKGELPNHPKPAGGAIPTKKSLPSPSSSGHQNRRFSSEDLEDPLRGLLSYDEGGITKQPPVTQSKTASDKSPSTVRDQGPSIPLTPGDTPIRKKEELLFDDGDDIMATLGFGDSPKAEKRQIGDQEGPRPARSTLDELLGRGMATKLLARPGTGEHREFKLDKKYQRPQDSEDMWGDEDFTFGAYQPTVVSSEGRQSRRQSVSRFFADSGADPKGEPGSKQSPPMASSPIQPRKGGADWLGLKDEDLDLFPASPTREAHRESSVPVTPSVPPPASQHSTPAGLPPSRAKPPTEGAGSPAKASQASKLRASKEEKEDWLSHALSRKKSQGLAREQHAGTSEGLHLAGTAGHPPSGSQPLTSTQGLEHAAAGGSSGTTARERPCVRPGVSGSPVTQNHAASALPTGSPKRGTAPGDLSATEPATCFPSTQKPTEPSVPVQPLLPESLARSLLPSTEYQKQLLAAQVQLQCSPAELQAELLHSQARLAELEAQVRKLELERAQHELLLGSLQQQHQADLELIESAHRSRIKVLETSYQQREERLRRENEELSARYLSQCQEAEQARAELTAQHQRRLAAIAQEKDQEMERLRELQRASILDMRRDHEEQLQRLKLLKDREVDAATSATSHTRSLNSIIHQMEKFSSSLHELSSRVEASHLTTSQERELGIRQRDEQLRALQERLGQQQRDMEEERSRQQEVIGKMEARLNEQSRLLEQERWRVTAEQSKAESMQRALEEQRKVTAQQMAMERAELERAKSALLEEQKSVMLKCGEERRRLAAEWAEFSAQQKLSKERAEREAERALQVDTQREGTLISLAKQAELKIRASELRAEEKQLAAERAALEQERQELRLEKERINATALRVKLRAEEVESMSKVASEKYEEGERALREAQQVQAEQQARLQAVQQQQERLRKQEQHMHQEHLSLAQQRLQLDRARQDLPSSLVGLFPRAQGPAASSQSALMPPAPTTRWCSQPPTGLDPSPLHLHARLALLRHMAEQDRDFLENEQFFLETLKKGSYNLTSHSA
UniProt P16591: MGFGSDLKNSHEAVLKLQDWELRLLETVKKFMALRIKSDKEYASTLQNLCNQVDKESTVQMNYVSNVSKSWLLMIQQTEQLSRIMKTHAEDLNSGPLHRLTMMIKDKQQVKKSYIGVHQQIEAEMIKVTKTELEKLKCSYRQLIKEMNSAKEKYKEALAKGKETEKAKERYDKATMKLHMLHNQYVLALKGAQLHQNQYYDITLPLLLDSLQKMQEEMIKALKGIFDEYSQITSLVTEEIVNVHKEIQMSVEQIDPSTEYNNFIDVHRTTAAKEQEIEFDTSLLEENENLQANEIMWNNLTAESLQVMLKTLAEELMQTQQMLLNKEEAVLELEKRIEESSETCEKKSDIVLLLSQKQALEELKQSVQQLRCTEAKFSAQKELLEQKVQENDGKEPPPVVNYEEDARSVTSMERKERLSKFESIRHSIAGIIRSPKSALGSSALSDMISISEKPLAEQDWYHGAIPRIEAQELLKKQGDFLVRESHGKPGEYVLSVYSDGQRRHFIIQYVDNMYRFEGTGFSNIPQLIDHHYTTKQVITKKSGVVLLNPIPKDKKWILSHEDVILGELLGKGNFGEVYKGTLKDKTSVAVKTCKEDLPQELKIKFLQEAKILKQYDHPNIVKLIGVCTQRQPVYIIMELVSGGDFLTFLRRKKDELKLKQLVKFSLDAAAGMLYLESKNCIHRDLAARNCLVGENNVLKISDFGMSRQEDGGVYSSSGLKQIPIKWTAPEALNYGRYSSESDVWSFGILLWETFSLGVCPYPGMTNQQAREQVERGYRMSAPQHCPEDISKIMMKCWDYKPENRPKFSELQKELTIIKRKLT
UniProt O94887: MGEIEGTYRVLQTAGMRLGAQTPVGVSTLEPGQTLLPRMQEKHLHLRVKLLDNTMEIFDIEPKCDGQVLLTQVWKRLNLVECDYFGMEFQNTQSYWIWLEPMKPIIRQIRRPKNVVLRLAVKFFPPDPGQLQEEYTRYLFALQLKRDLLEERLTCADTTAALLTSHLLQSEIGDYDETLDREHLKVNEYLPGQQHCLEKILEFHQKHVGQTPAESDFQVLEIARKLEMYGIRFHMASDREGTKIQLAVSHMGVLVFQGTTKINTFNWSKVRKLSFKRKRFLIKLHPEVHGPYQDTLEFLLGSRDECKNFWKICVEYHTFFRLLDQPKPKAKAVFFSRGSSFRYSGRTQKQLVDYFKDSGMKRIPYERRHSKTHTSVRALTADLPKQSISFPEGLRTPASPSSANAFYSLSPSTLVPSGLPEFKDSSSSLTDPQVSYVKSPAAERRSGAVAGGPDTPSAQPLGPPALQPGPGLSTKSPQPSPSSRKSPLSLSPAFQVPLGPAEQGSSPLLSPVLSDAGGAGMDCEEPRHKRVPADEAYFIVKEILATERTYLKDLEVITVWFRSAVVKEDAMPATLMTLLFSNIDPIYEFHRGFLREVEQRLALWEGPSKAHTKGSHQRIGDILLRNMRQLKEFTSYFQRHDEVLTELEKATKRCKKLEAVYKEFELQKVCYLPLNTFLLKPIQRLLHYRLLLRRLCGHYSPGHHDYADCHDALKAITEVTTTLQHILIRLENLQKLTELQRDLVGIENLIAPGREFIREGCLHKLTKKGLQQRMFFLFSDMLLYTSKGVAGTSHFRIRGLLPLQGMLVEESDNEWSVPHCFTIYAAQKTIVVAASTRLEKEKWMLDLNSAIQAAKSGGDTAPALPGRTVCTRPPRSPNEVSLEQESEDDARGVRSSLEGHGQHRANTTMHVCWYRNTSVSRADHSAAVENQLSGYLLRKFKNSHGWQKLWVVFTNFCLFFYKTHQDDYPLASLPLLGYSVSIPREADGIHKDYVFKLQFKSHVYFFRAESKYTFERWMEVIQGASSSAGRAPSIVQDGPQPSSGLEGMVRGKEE
UniProt Q14153: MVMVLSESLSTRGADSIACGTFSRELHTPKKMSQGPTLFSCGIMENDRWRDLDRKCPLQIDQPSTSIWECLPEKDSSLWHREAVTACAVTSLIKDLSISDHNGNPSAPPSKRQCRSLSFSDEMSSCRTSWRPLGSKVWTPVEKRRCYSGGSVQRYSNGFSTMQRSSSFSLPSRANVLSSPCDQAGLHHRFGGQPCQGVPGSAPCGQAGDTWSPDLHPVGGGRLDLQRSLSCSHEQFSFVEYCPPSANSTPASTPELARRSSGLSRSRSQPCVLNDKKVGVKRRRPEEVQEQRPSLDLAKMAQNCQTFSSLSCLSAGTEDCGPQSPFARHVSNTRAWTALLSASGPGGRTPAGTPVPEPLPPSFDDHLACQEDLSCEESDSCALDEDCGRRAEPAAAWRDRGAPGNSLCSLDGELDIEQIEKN

Assays:
Assay in all cases: log2 fold change, soluble protein after heating vs DMSO (PISA); higher = thermal stabilisation; K562 cells, 10 uM, 30 min; active = over 0.2 and 3.5 SD of the protein, either way, in both replicates (recomputed)
[1] = compound: CS(=O)(=O)c1ccc(-c2cnc(N)c(C(=O)Nc3ccccc3)n2)cc1
How it was run: (§1)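 K562 cells at 2×10^6 cells/mL were treated with 10 μM compound for 30 min. Aliquots were heated for 3 min across 48°C-58°C, pooled, and extracted in PBS with 0.5% NP-40 at 4°C; soluble protein was the supernatant after 21,000xg for 90 min. Soluble protein was quantified by TMTpro 16plex LC-MS/MS with channel sums equalised, and reported as log2 fold change in thermal stability against DMSO controls, with values from duplicates.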

crizotinib = compound: C[C@@H](Oc1cc(-c2cnn(C3CCNCC3)c2)cnc1N)c1c(Cl)ccc(F)c1Cl [crizotinib]
How it was run: as §1

[2] = compound: C[C@@H]1COCCN1C2=NC(=NC(=C2)C3(CC3)S(=O)(=O)C)C4=C5C=CNC5=CC=C4
How it was run: as §1

[3] = compound: C[C@H](C1=CC=C(C=C1)C(=O)NC2=C3C=CNC3=NC=C2)N
How it was run: as §1

gandotinib = compound: Cc1cc(Nc2cc(CN3CCOCC3)c3nc(C)c(Cc4ccc(Cl)cc4F)n3n2)n[nH]1 [gandotinib]
How it was run: as §1

[4] = compound: Cc1cc(SCc2sc(-c3ccc(C(F)(F)F)cc3)nc2C)ccc1OCC(=O)O
How it was run: as §1

doramapimod = compound: Cc1ccc(-n2nc(C(C)(C)C)cc2NC(=O)Nc2ccc(OCCN3CCOCC3)c3ccccc23)cc1 [doramapimod]
How it was run: as §1

[5] = compound: Cc1cccc(CC(=O)N2CCc3c2ccc(-c2cn(C)c4ncnc(N)c24)c3F)n1
How it was run: as §1

nilotinib = compound: Cc1cn(-c2cc(NC(=O)c3ccc(C)c(Nc4nccc(-c5cccnc5)n4)c3)cc(C(F)(F)F)c2)cn1 [nilotinib]
How it was run: as §1

[6] = compound: Cc1nc(Nc2n[nH]c3c2CN(C(=O)N[C@H](CN(C)C)c2ccccc2)C3(C)C)c2sccc2n1
How it was run: as §1

dasatinib = compound: Cc1nc(Nc2ncc(C(=O)Nc3c(C)cccc3Cl)s2)cc(N2CCN(CCO)CC2)n1 [dasatinib]
How it was run: as §1

[7] = compound: Cc1ncc(-c2ccnc(Nc3ccc(S(C)(=O)=O)cc3)n2)n1C(C)C
How it was run: as §1

[8] = compound: Cn1cc(-c2ccc3c(c2)CCN3C(=O)Cc2cccc(C(F)(F)F)c2)c2c(N)ncnc21
How it was run: as §1

mubritinib = compound: FC(F)(F)c1ccc(/C=C/c2nc(COc3ccc(CCCCn4ccnn4)cc3)co2)cc1 [mubritinib]
How it was run: as §1

tipifarnib = compound: Cn1cncc1[C@@](N)(c1ccc(Cl)cc1)c1ccc2c(c1)c(-c1cccc(Cl)c1)cc(=O)n2C [tipifarnib]
How it was run: as §1

ispinesib = compound: Cc1ccc(C(=O)N(CCCN)[C@@H](c2nc3cc(Cl)ccc3c(=O)n2Cc2ccccc2)C(C)C)cc1 [ispinesib]
How it was run: as §1

bafetinib = compound: Cc1ccc(NC(=O)c2ccc(CN3CC[C@H](N(C)C)C3)c(C(F)(F)F)c2)cc1Nc1nccc(-c2cncnc2)n1 [bafetinib]
How it was run: as §1

[9] = compound: Cn1cc(-c2ccc3nnc(C(F)(F)c4ccc5ncccc5c4)n3n2)cn1
How it was run: as §1

duvelisib = compound: C[C@H](Nc1ncnc2nc[nH]c12)c1cc2cccc(Cl)c2c(=O)n1-c1ccccc1 [duvelisib]
How it was run: as §1

tozasertib = compound: Cc1cc(Nc2cc(N3CCN(C)CC3)nc(Sc3ccc(NC(=O)C4CC4)cc3)n2)n[nH]1 [tozasertib]
How it was run: as §1

Measured: log2 fold change

FIZ1 (UniProt Q96SL8)
inactive: [1] -0.05 | crizotinib 0.018 | [2] -0.354 | [3] 0.074 | gandotinib 0.024 | [4] 0.017 | doramapimod 0.044 | [5] -0.092 | nilotinib -0.09 | [6] 0.065 | dasatinib -0.026 | [7] -0.213 | [8] -0.137 | mubritinib -0.191

FBRS (UniProt J3KNZ9)
inactive: [1] 0.016 | crizotinib -0.244 | [2] -0.45 | [3] 0.768 | gandotinib 0.124 | doramapimod 0.531 | [5] -0.208 | nilotinib -0.177 | [6] 0.211 | [7] -0.008 | [8] -0.38 | tipifarnib 0.203

FNTA (UniProt P49354)
active: tipifarnib 0.429
inactive: [1] 0.073 | crizotinib 0.069 | [2] 0.077 | [3] -0.005 | gandotinib 0.057 | [4] -0.014 | doramapimod -0.043 | ispinesib 0.06 | bafetinib -0.024 | [5] -0.009 | nilotinib -0.002 | [6] 0.104 | dasatinib 0.165 | [7] 0.019 | [8] 0.036 | [9] 0.091 | mubritinib 0.013

FCGR2A (UniProt P12318)
inactive: [1] -0.07 | crizotinib 0.035 | [2] 0.347 | duvelisib 0.287 | gandotinib 0.082 | tozasertib -0.012 | [4] 0.128 | doramapimod -0.135 | ispinesib 0.124 | bafetinib 0.152 | [5] -0.061 | nilotinib -0.034 | [6] -0.053 | dasatinib -0.014 | [7] 0.059 | [9] -0.039 | tipifarnib 0.018 | mubritinib 0.031

3 successive entries out of the list so far:
FBRS (UniProt J3KNZ9)
inactive: [1] 0.016 | crizotinib -0.244 | [2] -0.45 | [3] 0.768 | gandotinib 0.124 | doramapimod 0.531 | [5] -0.208 | nilotinib -0.177 | [6] 0.211 | [7] -0.008 | [8] -0.38 | tipifarnib 0.203

FNTA (UniProt P49354)
active: tipifarnib 0.429
inactive: [1] 0.073 | crizotinib 0.069 | [2] 0.077 | [3] -0.005 | gandotinib 0.057 | [4] -0.014 | doramapimod -0.043 | ispinesib 0.06 | bafetinib -0.024 | [5] -0.009 | nilotinib -0.002 | [6] 0.104 | dasatinib 0.165 | [7] 0.019 | [8] 0.036 | [9] 0.091 | mubritinib 0.013

FCGR2A (UniProt P12318)
inactive: [1] -0.07 | crizotinib 0.035 | [2] 0.347 | duvelisib 0.287 | gandotinib 0.082 | tozasertib -0.012 | [4] 0.128 | doramapimod -0.135 | ispinesib 0.124 | bafetinib 0.152 | [5] -0.061 | nilotinib -0.034 | [6] -0.053 | dasatinib -0.014 | [7] 0.059 | [9] -0.039 | tipifarnib 0.018 | mubritinib 0.031

The listing continues:

FEZ2 isoform 2 (UniProt Q9UHY8)
inactive: [1] -0.02 | crizotinib 0.014 | [3] 0.003 | duvelisib 0.052 | gandotinib -0.171 | [4] 0.015 | doramapimod 0.019 | ispinesib -0.132 | bafetinib -0.018 | [5] -0.187 | nilotinib -0.043 | [6] -0.172 | dasatinib -0.366 | [7] 0.113 | [8] -0.074 | [9] 0.001 | tipifarnib -0.109 | mubritinib -0.011

FBXL4 (UniProt Q9UKA2)
inactive: [1] -0.242 | [2] 0 | duvelisib -0.052 | gandotinib 0.016 | [4] 0.143 | [5] 0 | dasatinib -0.12 | mubritinib -0.071

FNIP1 (UniProt Q8TF40)
inactive: [2] 0.076 | [3] -0.007 | duvelisib 0.026 | gandotinib -0.055 | tozasertib -0.046 | [4] 0.063 | ispinesib -0.129 | bafetinib -0.107 | [5] -0.022 | dasatinib -0.122 | [8] -0.133 | [9] 0.069 | tipifarnib 0.118 | mubritinib 0.039

FAT2 (UniProt Q9NYQ8)
inactive: crizotinib -0.148 | [2] 0.131 | [3] 0.306 | gandotinib -0.149 | [4] 0.121 | doramapimod 0.006 | ispinesib -0.006 | bafetinib 0.076 | [5] -0.005 | dasatinib 0.006 | [8] 0.167 | [9] 0.002 | tipifarnib 0.008 | mubritinib 0.354

FAM219B (UniProt Q5XKK7)
inactive: [1] 0.225 | gandotinib -0.023 | [5] -0.181 | tipifarnib 0.062 | mubritinib -0.008

FBXO2 (UniProt Q9UK22)
inactive: gandotinib -0.046 | [5] 0.051

FGB (UniProt P02675)
inactive: [1] -0.113 | [3] 0.201 | gandotinib -0.117 | tozasertib 0.038 | ispinesib -0.073 | bafetinib -0.053 | [5] -0.051 | nilotinib -0.023 | [6] 0.235 | [7] 0.112 | [8] 0.227 | [9] 0.107 | mubritinib -0.079

FKBP10 (UniProt Q96AY3)
inactive: [1] -0.083 | gandotinib -0.067 | [5] -0.024

FBF1 isoform 6 (UniProt Q8TES7)
inactive: crizotinib 0.051 | duvelisib -0.168 | [4] 0.022 | doramapimod 0.102 | nilotinib -0.011 | [6] -0.017 | dasatinib -0.019 | [7] 0.178

FER (UniProt P16591)
inactive: [1] -0.1 | gandotinib -0.063 | [5] -0.041

FMNL1 isoform 3 (UniProt O95466)
inactive: [1] 0.262 | [2] -0.079 | bafetinib 0.288

FARP2 (UniProt O94887)
inactive: [3] 0.135 | duvelisib 0.039 | tozasertib -0.021 | [4] -0.194 | dasatinib 0.035 | [8] -0.071 | tipifarnib 0.099

FAM53B (UniProt Q14153)
inactive: crizotinib -0.037 | [2] 0.023 | duvelisib -0.065 | [4] -0.028 | doramapimod 0.06 | ispinesib 0.041 | dasatinib -0.155 | [9] 0.146 | mubritinib 0.009

FAT4 (UniProt Q6V0I7)
inactive: [1] 0.042 | gandotinib -0.213 | tozasertib -0.093 | ispinesib -0.299 | [5] 0.049 | nilotinib -0.104 | [6] 0.027 | [7] -0.075 | [9] 0.257 | mubritinib -0.002
